Drawing on doi:10.1101/695155, this text covers binding for eleven molecules.

Chains of the proteins cited; added tags and fusions are not shown. Lines headed by an entry give the natural chain unless they say otherwise; changes in a name come on top.
UniProt Q6P5H2: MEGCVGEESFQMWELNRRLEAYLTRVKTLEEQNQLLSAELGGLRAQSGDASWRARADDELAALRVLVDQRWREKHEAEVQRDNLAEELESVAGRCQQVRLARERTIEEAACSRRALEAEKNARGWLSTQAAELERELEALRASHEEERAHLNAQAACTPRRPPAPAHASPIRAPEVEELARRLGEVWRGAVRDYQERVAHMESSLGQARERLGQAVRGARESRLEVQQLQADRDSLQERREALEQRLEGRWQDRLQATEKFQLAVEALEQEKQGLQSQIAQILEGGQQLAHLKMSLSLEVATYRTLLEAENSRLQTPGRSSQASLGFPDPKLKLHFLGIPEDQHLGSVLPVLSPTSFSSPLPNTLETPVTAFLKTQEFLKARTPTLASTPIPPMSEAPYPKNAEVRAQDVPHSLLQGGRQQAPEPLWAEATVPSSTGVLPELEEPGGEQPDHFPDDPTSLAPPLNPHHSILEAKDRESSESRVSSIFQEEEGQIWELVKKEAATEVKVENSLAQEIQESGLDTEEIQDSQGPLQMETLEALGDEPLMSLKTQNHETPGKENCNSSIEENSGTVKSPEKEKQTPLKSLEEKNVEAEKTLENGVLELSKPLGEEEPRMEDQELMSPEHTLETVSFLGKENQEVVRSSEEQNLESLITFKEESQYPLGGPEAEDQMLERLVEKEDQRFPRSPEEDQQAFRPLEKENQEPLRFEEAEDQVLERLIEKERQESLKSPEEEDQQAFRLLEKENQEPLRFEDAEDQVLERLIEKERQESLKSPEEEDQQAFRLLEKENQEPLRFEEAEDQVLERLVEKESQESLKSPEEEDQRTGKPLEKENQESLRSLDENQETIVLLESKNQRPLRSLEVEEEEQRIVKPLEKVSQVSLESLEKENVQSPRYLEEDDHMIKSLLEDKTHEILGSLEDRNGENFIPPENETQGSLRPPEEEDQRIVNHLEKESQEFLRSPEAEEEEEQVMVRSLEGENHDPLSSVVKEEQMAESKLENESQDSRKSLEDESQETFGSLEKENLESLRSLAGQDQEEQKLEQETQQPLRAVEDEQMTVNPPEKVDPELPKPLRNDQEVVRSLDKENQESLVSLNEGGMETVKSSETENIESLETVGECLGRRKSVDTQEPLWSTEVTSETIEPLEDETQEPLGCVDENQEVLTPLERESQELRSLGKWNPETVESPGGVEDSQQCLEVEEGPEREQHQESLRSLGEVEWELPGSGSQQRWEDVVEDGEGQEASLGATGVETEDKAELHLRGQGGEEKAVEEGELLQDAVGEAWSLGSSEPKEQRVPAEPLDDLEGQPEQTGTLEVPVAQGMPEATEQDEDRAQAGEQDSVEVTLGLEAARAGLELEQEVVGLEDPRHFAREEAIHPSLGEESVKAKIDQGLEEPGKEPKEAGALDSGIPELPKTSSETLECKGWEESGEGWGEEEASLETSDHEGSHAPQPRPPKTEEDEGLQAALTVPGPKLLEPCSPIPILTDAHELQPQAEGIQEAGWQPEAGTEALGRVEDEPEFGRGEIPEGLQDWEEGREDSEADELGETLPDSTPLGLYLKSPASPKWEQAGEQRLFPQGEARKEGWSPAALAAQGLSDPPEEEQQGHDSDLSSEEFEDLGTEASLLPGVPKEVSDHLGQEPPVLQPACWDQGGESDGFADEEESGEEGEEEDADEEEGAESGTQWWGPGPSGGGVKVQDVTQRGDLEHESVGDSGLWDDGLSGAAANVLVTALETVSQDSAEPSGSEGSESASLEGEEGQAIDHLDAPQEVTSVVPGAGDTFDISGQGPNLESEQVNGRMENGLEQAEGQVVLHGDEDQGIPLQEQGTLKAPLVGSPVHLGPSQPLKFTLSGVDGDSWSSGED
UniProt P21263: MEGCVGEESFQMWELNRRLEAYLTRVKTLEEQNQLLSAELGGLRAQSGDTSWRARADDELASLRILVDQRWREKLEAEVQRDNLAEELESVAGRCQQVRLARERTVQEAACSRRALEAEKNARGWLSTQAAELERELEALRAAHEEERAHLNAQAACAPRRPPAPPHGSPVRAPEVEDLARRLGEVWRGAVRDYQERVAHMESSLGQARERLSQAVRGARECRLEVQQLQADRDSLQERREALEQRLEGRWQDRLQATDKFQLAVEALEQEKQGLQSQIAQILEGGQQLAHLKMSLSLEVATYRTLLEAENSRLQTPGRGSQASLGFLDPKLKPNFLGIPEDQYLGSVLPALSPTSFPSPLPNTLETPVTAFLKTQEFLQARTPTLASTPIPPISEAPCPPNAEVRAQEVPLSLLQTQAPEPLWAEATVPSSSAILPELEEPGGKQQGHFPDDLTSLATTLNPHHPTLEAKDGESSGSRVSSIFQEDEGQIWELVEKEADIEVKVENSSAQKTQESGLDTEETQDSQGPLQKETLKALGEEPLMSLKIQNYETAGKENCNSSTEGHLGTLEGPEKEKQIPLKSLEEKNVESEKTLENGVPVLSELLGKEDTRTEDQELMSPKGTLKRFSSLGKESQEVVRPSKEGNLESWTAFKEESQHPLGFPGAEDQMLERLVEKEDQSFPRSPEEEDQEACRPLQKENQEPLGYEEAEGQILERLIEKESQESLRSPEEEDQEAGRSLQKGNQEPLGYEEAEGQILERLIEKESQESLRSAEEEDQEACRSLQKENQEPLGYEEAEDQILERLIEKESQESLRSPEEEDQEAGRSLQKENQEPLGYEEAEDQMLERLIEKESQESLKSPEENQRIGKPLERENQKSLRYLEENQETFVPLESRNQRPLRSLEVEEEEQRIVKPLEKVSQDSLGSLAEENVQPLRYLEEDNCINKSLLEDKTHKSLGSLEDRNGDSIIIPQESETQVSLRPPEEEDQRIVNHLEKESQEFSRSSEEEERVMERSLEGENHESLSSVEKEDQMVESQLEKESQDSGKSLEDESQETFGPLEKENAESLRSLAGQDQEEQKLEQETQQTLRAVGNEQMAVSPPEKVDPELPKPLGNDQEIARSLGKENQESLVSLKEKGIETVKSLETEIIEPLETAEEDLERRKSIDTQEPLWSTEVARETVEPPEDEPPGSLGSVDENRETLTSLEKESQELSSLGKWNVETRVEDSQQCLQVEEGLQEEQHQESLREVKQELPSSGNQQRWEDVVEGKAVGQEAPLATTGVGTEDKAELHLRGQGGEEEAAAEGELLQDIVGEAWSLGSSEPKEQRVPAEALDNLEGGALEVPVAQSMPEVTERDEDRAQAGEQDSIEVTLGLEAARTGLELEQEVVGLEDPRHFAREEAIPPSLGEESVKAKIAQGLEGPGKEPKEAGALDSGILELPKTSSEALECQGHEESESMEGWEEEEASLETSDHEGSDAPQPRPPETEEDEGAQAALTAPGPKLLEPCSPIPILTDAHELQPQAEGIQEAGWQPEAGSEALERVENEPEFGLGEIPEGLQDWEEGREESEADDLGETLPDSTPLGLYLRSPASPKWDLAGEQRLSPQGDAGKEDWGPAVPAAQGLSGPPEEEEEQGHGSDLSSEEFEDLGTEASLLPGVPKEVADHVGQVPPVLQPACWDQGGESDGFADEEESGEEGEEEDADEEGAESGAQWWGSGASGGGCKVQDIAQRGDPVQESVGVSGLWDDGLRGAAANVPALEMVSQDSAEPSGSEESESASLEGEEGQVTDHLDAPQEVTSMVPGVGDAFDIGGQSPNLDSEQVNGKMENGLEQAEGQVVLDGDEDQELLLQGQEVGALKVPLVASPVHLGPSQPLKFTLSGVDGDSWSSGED
UniProt Q15078: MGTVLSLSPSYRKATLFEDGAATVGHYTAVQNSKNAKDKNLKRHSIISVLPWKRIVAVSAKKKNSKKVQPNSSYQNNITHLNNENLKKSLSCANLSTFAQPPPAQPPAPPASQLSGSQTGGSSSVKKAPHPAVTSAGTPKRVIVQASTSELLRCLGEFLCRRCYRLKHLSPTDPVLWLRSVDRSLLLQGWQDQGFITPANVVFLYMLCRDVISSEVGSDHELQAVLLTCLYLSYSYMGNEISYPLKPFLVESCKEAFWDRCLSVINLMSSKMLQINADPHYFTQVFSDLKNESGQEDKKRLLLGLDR
UniProt Q05397: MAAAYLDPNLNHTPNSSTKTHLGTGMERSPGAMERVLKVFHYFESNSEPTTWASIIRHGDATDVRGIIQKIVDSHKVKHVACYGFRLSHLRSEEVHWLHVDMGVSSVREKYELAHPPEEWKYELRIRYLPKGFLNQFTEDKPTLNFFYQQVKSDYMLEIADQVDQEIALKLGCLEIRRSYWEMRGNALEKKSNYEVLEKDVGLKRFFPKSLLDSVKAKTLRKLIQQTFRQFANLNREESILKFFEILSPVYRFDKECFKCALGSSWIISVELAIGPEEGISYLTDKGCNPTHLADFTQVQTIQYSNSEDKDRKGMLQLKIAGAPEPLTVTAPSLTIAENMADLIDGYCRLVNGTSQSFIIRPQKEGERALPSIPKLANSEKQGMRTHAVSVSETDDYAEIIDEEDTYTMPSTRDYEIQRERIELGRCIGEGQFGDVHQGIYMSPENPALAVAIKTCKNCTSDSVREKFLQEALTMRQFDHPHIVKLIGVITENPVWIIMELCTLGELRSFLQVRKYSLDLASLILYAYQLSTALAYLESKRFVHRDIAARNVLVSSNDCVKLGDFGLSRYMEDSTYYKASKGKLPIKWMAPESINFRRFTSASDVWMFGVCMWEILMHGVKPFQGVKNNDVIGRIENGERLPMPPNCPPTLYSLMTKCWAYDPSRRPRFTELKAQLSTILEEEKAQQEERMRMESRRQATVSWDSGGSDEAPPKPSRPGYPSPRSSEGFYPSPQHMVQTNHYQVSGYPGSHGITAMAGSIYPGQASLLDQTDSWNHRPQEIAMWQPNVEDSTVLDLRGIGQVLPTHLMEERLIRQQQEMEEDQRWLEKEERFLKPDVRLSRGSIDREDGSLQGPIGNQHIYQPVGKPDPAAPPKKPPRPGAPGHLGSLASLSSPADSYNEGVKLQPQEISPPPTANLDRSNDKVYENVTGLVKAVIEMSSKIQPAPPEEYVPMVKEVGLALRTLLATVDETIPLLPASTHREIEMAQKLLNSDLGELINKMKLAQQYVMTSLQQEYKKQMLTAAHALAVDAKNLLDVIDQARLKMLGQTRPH
UniProt P08670: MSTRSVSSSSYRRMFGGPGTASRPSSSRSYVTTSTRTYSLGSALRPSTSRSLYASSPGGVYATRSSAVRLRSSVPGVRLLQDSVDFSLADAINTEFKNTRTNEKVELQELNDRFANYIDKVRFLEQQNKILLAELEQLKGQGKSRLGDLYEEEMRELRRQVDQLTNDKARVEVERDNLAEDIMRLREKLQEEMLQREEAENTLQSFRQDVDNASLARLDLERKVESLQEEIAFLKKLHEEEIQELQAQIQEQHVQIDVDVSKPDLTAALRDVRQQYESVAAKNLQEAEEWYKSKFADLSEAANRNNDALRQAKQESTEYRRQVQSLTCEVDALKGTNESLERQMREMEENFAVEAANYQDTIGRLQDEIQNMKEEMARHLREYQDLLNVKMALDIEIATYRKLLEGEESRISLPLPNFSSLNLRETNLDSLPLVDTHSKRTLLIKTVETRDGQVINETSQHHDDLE
UniProt O35274: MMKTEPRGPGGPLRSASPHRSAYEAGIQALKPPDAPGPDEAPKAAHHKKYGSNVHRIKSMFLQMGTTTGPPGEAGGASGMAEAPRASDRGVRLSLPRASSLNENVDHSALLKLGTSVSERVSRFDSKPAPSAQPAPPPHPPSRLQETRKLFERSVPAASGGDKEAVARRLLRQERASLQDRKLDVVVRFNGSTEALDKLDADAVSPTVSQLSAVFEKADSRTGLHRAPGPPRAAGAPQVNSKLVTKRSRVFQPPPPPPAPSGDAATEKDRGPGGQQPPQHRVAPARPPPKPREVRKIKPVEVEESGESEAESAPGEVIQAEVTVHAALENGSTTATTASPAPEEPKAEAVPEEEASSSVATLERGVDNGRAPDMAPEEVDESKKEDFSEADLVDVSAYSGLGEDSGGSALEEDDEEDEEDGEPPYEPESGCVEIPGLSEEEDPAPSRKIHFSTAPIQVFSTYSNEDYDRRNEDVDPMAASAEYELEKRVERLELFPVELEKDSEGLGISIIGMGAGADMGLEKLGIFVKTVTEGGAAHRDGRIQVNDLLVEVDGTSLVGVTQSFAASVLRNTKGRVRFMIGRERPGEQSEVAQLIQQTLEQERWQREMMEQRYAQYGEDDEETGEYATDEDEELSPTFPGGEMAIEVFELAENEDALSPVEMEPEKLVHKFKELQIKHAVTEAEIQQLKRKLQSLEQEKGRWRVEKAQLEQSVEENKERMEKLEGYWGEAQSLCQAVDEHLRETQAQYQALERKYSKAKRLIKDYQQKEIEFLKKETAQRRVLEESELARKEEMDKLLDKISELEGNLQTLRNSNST

Where two headings read alike, the source gives them in different places. These are yes or no findings as the source states them, for the method shown. In cells and extracts the contact can be indirect. Some results given as binding are weak or reduced against the parent protein; the word gives no strength. For some assays here: Where a sequence is shown, tags or fusion partners need not be part of it.

Holding throughout (assay): co-IP
Assay [1] has as its target Nestin-myc (mouse) (UniProt Q6P5H2).
The target of the next assay is Nestin-myc T316A (mouse) (UniProt Q6P5H2).
Assay [2] addresses T1, DCX (endogenous, E16 mouse cortical neurons, 1 DIV) (mouse (endogenous in E16 cortical neurons)) (UniProt O88809).
T1 sequence: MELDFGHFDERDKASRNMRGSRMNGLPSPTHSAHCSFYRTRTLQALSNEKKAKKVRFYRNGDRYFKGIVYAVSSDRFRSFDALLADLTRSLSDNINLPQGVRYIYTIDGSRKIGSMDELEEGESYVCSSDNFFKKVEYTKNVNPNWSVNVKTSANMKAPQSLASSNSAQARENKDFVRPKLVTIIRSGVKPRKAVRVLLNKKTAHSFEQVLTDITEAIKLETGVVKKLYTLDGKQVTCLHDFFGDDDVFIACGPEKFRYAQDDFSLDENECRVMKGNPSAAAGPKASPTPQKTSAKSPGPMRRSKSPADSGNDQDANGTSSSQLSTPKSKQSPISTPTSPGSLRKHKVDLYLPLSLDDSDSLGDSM

Another assay has as its target Nestin-myc T316D (mouse) (UniProt Q6P5H2).
The target of assay [3] is T2, DCX (endogenous, E17 rat brain) (rat (endogenous in E17 rat brain)) (UniProt Q9ESI7).
T2 sequence: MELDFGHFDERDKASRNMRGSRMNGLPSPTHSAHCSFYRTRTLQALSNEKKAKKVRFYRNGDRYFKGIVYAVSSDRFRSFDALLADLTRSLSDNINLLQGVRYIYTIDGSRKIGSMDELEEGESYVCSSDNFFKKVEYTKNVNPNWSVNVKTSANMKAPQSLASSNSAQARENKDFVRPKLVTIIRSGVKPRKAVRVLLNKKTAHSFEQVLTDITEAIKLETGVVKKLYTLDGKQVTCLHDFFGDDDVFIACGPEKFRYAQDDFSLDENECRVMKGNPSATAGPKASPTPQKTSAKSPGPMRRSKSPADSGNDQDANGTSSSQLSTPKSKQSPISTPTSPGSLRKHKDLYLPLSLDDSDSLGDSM

Assay [4] has as its target T2, DCX (endogenous, E17 rat brain) (rat (endogenous in E17 rat brain)). The source holds these as a separate data set.
Assay [5] concerns the target Nestin-myc (mouse) (UniProt Q6P5H2). This is another data set of the same source.
The target of assay [6] is nestin (endogenous, E17 rat brain) (rat (endogenous in E17 rat brain)) (UniProt P21263).

Regarding p35 (from UniProt Q15078 1-307), the binding entry with Nestin-myc (mouse) [1] and in the assay with Nestin-myc T316A (mouse) was “binds” each time.

Regarding “nestin (endogenous, E16 mouse cortical neurons, 1 DIV) (from UniProt Q6P5H2 1-1864)”, in assay [2], the binding result was “binds”.

As to GFP-FAK (from UniProt Q05397 1-1052), in the assay with Nestin-myc (mouse) [1], the binding entry was “no binding”.

Take “vimentin (endogenous, HEK293) (from UniProt P08670 1-466)”: the binding result with Nestin-myc T316D (mouse), with Nestin-myc (mouse) [1] and with Nestin-myc T316A (mouse) was “binds” throughout.

Consider “spinophilin (SPN) (endogenous, E17 rat brain) (from UniProt O35274 1-817)”, for which the binding entry in assay [3] is listed as “binds”.

“nestin (endogenous, E17 rat brain) (from UniProt P21263 1-1893)”: the binding result in assay [3] is recorded as “binds”.

B1: drebrin (endogenous, E17 rat brain) (protein, UniProt Q07266 1-707)
chain: MAGVSFSGHRLELLAAYEEVIREESAADWALYTYEDGSDDLKLAASGEGGLQELSGHFENQKVMYGFCSVKDSQAALPKYVLINWVGEDVPDARKCACASHVAKVAEFFQGVDVIVNASSVEDIDAGAIGQRLSNGLARLSSPVLHRLRLREDENAEPVGTTYQKTDAAVEMKRINREQFWEQAKKEEELRKEEERKKALDARLRFEQERMEQERQEQEERERRYREREQQIEEHRRKQQSLEAEEAKRRLKDQSIFGDQRDEEEESQMKKSESEVEEAAAIIAQRPDNPREFFRQQERVASASGGSCDAPSPFNHRPGRPYCPFIKASDSGPSSSSSSSSSPPRTPFPYITCHRTPNLSSSLPCSHLDSHRRMAPTPIPTRSPSDSSTASTPITEQIERALDEVTSSQPPPPPPPPPPAQEAQESAPRLDGEEVCKEAKVAAAPQVWAGCAEEPPRAQEPPLLQSSPTEDLMCTESPEQAVLAASPEPDASVTSVADAHAADTIETTTATTATTIADNVTPAAASLIDLWPGNGEEASTPQAEPRVPTPPSGAEASLAEVPLLNEAAQEPLPPVGEGCANLLNFDELPEPPATFCDPEEEAEGEPLAASQVLTMPSALEEVDQVLEQELEPEPHLLTNGETTQKEGTQQASEGYFSQSQEEEFAQSEEPCAKAPPPVFYNKPPEIDITCWDADPVPEEEEGFEGGD
In the case of B1, in assay [4], the binding result was “no binding”.

B2: Drebrin-YFP (protein, UniProt Q16643 1-649)
chain: MAGVSFSGHRLELLAAYEEVIREESAADWALYTYEDGSDDLKLAASGEGGLQELSGHFENQKVMYGFCSVKDSQAALPKYVLINWVGEDVPDARKCACASHVAKVAEFFQGVDVIVNASSVEDIDAGAIGQRLSNGLARLSSPVLHRLRLREDENAEPVGTTYQKTDAAVEMKRINREQFWEQAKKEEELRKEEERKKALDERLRFEQERMEQERQEQEERERRYREREQQIEEHRRKQQTLEAEEAKRRLKEQSIFGDHRDEEEETHMKKSESEVEEAAAIIAQRPDNPREFFKQQERVASASAGSCDVPSPFNHRPGSHLDSHRRMAPTPIPTRSPSDSSTASTPVAEQIERALDEVTSSQPPPLPPPPPPAQETQEPSPILDSEETRAAAPQAWAGPMEEPPQAQAPPRGPGSPAEDLMFMESAEQAVLAAPVEPATADATEIHDAADTIETDTATADTTVANNVPPAATSLIDLWPGNGEGASTLQGEPRAPTPPSGTEVTLAEVPLLDEVAPEPLLPAGEGCATLLNFDELPEPPATFCDPEEVEGESLAAPQTPTLPSALEELEQEQEPEPHLLTNGETTQKEGTQASEGYFSQSQEEEFAQSEELCAKAPPPVFYNKPPEIDITCWDADPVPEEEEGFEGGD
On to B2, for which the binding entry with Nestin-myc (mouse) [5] was “no binding”.

B3: GFP-DCLK1 (protein, UniProt O15075 1-740)
chain: MSFGRDMELEHFDERDKAQRYSRGSRVNGLPSPTHSAHCSFYRTRTLQTLSSEKKAKKVRFYRNGDRYFKGIVYAISPDRFRSFEALLADLTRTLSDNVNLPQGVRTIYTIDGLKKISSLDQLVEGESYVCGSIEPFKKLEYTKNVNPNWSVNVKTTSASRAVSSLATAKGSPSEVRENKDFIRPKLVTIIRSGVKPRKAVRILLNKKTAHSFEQVLTDITDAIKLDSGVVKRLYTLDGKQVMCLQDFFGDDDIFIACGPEKFRYQDDFLLDESECRVVKSTSYTKIASSSRRSTTKSPGPSRRSKSPASTSSVNGTPGSQLSTPRSGKSPSPSPTSPGSLRKQRSSQHGGSSTSLASTKVCSSMDENDGPGEEVSEEGFQIPATITERYKVGRTIGDGNFAVVKECVERSTAREYALKIIKKSKCRGKEHMIQNEVSILRRVKHPNIVLLIEEMDVPTELYLVMELVKGGDLFDAITSTNKYTERDASGMLYNLASAIKYLHSLNIVHRDIKPENLLVYEHQDGSKSLKLGDFGLATIVDGPLYTVCGTPTYVAPEIIAETGYGLKVDIWAAGVITYILLCGFPPFRGSGDDQEVLFDQILMGQVDFPSPYWDNVSDSAKELITMMLLVDVDQRFSAVQVLEHPWVNDDGLPENEHQLSVAGKIKKHFNTGPKPNSTAAGVSVIATTALDKERQVFRRRRNQDVRSRYKAQPAPPELNSESEDYSPSSSETVRSPNSPF
Regarding B3, the binding entry in the assay with Nestin-myc (mouse) [5] is listed as “no binding”.

B4: GFP-DCX dephosphorylated with lambda phosphatase (protein, UniProt O43602 1-365)
chain: MELDFGHFDERDKTSRNMRGSRMNGLPSPTHSAHCSFYRTRTLQALSNEKKAKKVRFYRNGDRYFKGIVYAVSSDRFRSFDALLADLTRSLSDNINLPQGVRYIYTIDGSRKIGSMDELEEGESYVCSSDNFFKKVEYTKNVNPNWSVNVKTSANMKAPQSLASSNSAQARENKDFVRPKLVTIIRSGVKPRKAVRVLLNKKTAHSFEQVLTDITEAIKLETGVVKKLYTLDGKQVTCLHDFFGDDDVFIACGPEKFRYAQDDFSLDENECRVMKGNPSATAGPKASPTPQKTSAKSPGPMRRSKSPADSGNDQDANGTSSSQLSTPKSKQSPISTPTSPGSLRKHKDLYLPLSLDDSDSLGDSM
modifications: dephosphorylated with lambda phosphatase (reduced pS297 levels)
For B4, the binding result with Nestin-myc (mouse) [5] is listed as “binds”.

B5: DCX (endogenous, E17 rat brain) (protein, UniProt Q9ESI7 1-365)
chain: MELDFGHFDERDKASRNMRGSRMNGLPSPTHSAHCSFYRTRTLQALSNEKKAKKVRFYRNGDRYFKGIVYAVSSDRFRSFDALLADLTRSLSDNINLLQGVRYIYTIDGSRKIGSMDELEEGESYVCSSDNFFKKVEYTKNVNPNWSVNVKTSANMKAPQSLASSNSAQARENKDFVRPKLVTIIRSGVKPRKAVRVLLNKKTAHSFEQVLTDITEAIKLETGVVKKLYTLDGKQVTCLHDFFGDDDVFIACGPEKFRYAQDDFSLDENECRVMKGNPSATAGPKASPTPQKTSAKSPGPMRRSKSPADSGNDQDANGTSSSQLSTPKSKQSPISTPTSPGSLRKHKDLYLPLSLDDSDSLGDSM
For the molecule B5, the binding entry in assay [6] was “binds”.
